Values joined by “and” are separate entries in the source; they are usually repeats but may differ in a detail not shown here. Equal entries are not always repeated. Non-standard residues stand in square brackets, D forms with d. Residues, ends and D or L forms follow the SMILES beside them. Hyp = O=C(O)[C@@H]1C[C@@H](O)CN1
Tested on: CNT1
Assay: Untargeted metabolomics of Slc28a1-/- vs Slc28a1+/+ mouse urine (24 h, ad libitum)
Settings: Slc28a1-/- / Slc28a1+/+

CC=CC=CC=CCCCCC(=O)OC(CC(=O)[O-])C[N+](C)(C)C (stereo not shown) [Dodeca-6,8,10-trienoylcarnitine]
Fold Change: 5.2723 | log2(FC): 2.3984

NCCC1=CC(=O)C(=O)C=C1 [Dopamine quinone]
Fold Change: 0.7898 | log2(FC): -0.3404

N[C@@H](CC1=CC(=O)C(=O)C=C1)C(=O)O [Dopaquinone]
Fold Change: 0.1521 | log2(FC): -2.7173

Cn1cnc2nc(N)[nH]c(=O)c21 [Epiguanine]
Fold Change: 1.3975 | log2(FC): 0.4829

C[C@]12CC[C@@H]3c4ccc(O)cc4CC[C@H]3[C@@H]1C[C@@H](O)[C@@H]2O [Estriol]
log2(FC): -1.9 and -1.8773

CC[C@H](C)[C@H](NC(=O)[C@@H](N)CCC(=O)O)C(=O)O [Glutamylisoleucine] (H-Glu-Ile-OH)
Fold Change: 4E+00 and 4.1736 | log2(FC): 2.1 and 2.0613

CSCC[C@H](NC(=O)[C@@H](N)CCC(=O)O)C(=O)O [Glutamylmethionine] (H-Glu-Met-OH)
Fold Change: 2E-02 and 0.01803 | log2(FC): -5.8 and -5.7934

Nc1nc2c(ncn2[C@@H]2O[C@H](CO)[C@@H](O)[C@H]2O)c(=O)[nH]1 [Guanosine]
Fold Change: 2.0075 | log2(FC): 1.0054

CCCCCCC(=O)OC(CC(=O)[O-])C[N+](C)(C)C (stereo not shown) [Heptanoylcarnitine]
Fold Change: 13.376 | log2(FC): 3.7416

C[N+](C)(C)C[C@@H](CC(=O)[O-])OC(=O)CCCCCCCCCCCCCCC(=O)O [Hexadecanedioic acid mono-L-carnitine ester]
Fold Change: 37.25 | log2(FC): 5.2192

CCCCCCOC(=O)CCC(=O)CN [Hexaminolevulinate]
Fold Change: 1.4859 | log2(FC): 0.5713

CCCCCC(=O)NCC(=O)O [Hexanoylglycine]
Fold Change: 0.4503 | log2(FC): -1.1509

N[C@@H](Cc1cnc[nH]1)C(=O)N[C@@H](Cc1ccc(O)cc1)C(=O)O [Histidyltyrosine] (H-His-Tyr-OH)
Fold Change: 0.0967 | log2(FC): -3.3703

CC(=O)OCCc1ccc(O)c(O)c1 [Hydroxy Tyrosol -Acetate]
Fold Change: 7.1643 | log2(FC): 2.8408

O=C(Cc1c[nH]c2ccccc12)O[C@@H]1O[C@H](C(=O)O)[C@@H](O)[C@H](O)[C@H]1O [Indole-3-acetic-acid-O-glucuronide]
log2(FC): -1.7 and -1.6799

c1ccc2[nH]ccc2c1 [Indole]
Fold Change: 46.866 | log2(FC): 5.5505

c1ccc2c(c1)CCN2 [Indoline]
Fold Change: 1.3203 | log2(FC): 0.4008

O=C1NCc2ccccc21 [Isoindolin-1-one]
Fold Change: 0.4546 | log2(FC): -1.1373

CC[C@H](C)[C@H](N)C(=O)N1C[C@H](O)C[C@H]1C(=O)O [Isoleucylhydroxyproline] (H-Ile-[Hyp]-OH)
Fold Change: 1.4078 | log2(FC): 0.4935

CCC(C)C(N)C(=O)N1CCCC1C(=O)O (stereo not drawn) [Isoleucylproline] (H-Ile-Pro-OH; configuration not given here)
Fold Change: 1.0909 | log2(FC): 0.1255

c1ccc2cnccc2c1 [Isoquinoline]
Fold Change: 84.403 | log2(FC): 6.3992

CC(C)CC(=O)N[C@@H](CCC(=O)O)C(=O)O [Isovalerylglutamic acid]
Fold Change: 1.3227 | log2(FC): 0.4035

O=C(O)[C@@H]1Cc2c([nH]c3ccccc23)CN1 [L-1,2,3,4-Tetrahydro-beta-carboline-3-carboxylic acid]
Fold Change: 0.7991 | log2(FC): -0.3236

CSCC[C@H](N)C(=O)O [L-Methionine]
Fold Change: 0.5434 | log2(FC): -0.8798

O=C(O)[C@@H]1CCCN1 [L-Proline]
Fold Change: 6E-01 and 0.6085 | log2(FC): -0.7 and -0.7167

Cc1cc(=O)c(O)cn1CCCCC(N)C(=O)O [L-Pyridosine]
Fold Change: 2.2535 | log2(FC): 1.1722

N[C@@H](Cc1ccc(O)cc1)C(=O)O [L-Tyrosine]
log2(FC): 0.5105

N[C@@H](CCCCn1cccc1)C(=O)O [L-alpha-Amino-1H-pyrrole-1-hexanoic acid]
Fold Change: 7E+01 and 69.87 | log2(FC): 6.1 and 6.1266

CC(O)C(N)=O (stereo not shown) [Lactamide]
Fold Change: 0.8454 | log2(FC): -0.2422

COC(=O)[C@H](CC(C)C)NC(=O)[C@@H](N)CC(C)C [Leucylleucine methyl ester]
Fold Change: 13.262 | log2(FC): 3.7292

COC(=O)C1=CO[C@@H](O[C@@H]2O[C@H](CO)[C@@H](O)[C@H](O)[C@H]2O)[C@@H]2[C@@H](C)[C@@H](O)C[C@H]12 [Loganoside]
Fold Change: 1.4295 | log2(FC): 0.5155

CCOC(=O)[C@@](C)(N)Cc1ccc(O)c(O)c1 [Methyldopate]
Fold Change: 0.3271 | log2(FC): -1.6121

CC(=O)Nc1ccn([C@@H]2O[C@H](CO)[C@@H](O)[C@H]2O)c(=O)n1 [N4-Acetylcytidine]
Fold Change: 1.3899 | log2(FC): 0.475

O=C(O)[C@H](Cc1ccc(O)cc1)NCC(=O)[C@@H](O)[C@H](O)[C@H](O)CO [N-(1-Deoxy-1-fructosyl)tyrosine]
Fold Change: 1.4934 | log2(FC): 0.5786

CCCC(CCC)NC(=O)c1ccc2c(c1)OCO2 [N-(Heptan-4-yl)benzo[d][1,3]dioxole-5-carboxamide]
Fold Change: 2.7234 | log2(FC): 1.4454

CC(=O)N[C@@H](Cc1ccccc1)C(=O)O [N-Acetyl-L-phenylalanine]
Fold Change: 4E-01 and 0.3732 | log2(FC): -1.4 and -1.422

CC(=O)N[C@@H](CSCCCO)C(=O)O [N-Acetyl-S-(3-hydroxypropyl)cysteine]
Fold Change: 4E-01 and 0.3529 | log2(FC): -1.5 and -1.5026

C=CCSC[C@H](NC(C)=O)C(=O)O [N-Acetyl-S-allylcysteine]
Fold Change: 3E-02 and 0.02838 | log2(FC): -5.1 and -5.1388

CC(=O)N1CCCC1C(=O)O (stereo not shown) [N-Acetylproline]
Fold Change: 1.2077 | log2(FC): 0.2723

CCCCCCC(=O)NCC(=O)O [N-Heptanoylglycine]
Fold Change: 0.3659 | log2(FC): -1.4506

CC/C=C\C[C@H]1C(=O)CC[C@@H]1CC(=O)N[C@H](C(=O)O)[C@@H](C)CC [N-Jasmonoylisoleucine]
Fold Change: 1.9849 | log2(FC): 0.989

CC(C)C[C@H](NC(=O)C(C)O)C(=O)O (stereo partly shown) [N-Lactoylleucine]
Fold Change: 0.4005 | log2(FC): -1.3201

CCCC(=O)N[C@H]1CCOC1=O [N-[(3s)-2-Oxotetrahydrofuran-3-Yl]butanamide]
Fold Change: 2E-01 and 0.173 | log2(FC): -2.5 and -2.5309

CC(O)C(=O)NC(Cc1ccc(O)cc1)C(=O)O (stereo not shown) [N-lactoyl-Tyrosine]
Fold Change: 1.2035 | log2(FC): 0.2673

CC=CCCC=CCC(=O)OC(CC(=O)[O-])C[N+](C)(C)C (stereo not shown) [Nona-3,7-dienoylcarnitine]
Fold Change: 0.2423 | log2(FC): -2.045

C[N+](C)(C)CC(CC(=O)[O-])OC(=O)CCCCCCCC(=O)O (stereo not shown) [Nonanedioylcarnitine]
Fold Change: 5.3406 | log2(FC): 2.417

C[N+](C)(C)CC(CC(=O)[O-])OC(=O)C=CCCC=CC(=O)O (stereo not shown) [Octa-2,6-dienedioylcarnitine]
Fold Change: 3.6298 | log2(FC): 1.8599

O=C(O)CCC(=O)OC[C@H]1O[C@@H](Oc2cc3c(O)cc(O)cc3[o+]c2-c2ccc(O)cc2)[C@H](O)[C@@H](O)[C@@H]1O [Pelargonidin 3-(6''-succinyl-glucoside)]
Fold Change: 0.001351 | log2(FC): -9.5315

C/C=C(/C)C(=O)O[C@H]1CN2CCC[C@H]2[C@H]1CO [Petasinine]
Fold Change: 0.1581 | log2(FC): -2.661

O=C(OC[C@H]1OC(OCCc2ccccc2)[C@H](O)[C@@H](O)[C@@H]1O)c1cc(O)c(O)c(O)c1 (stereo partly shown) [Phenethyl 6-galloylglucoside]
Fold Change: 1.4413 | log2(FC): 0.5274

C[N+](C)(C)C[C@@H](CC(=O)[O-])OC(=O)CCCCCC(=O)O [Pimelylcarnitine]
Fold Change: 3.8414 | log2(FC): 1.9416

C[C@]12C=CC(=O)C=C1CC[C@@H]1[C@@H]2[C@@H](O)C[C@@]2(C)[C@H]1CC[C@]2(O)C(=O)CO [Prednisolone]
log2(FC): 5.2701

C=CC(=O)O[C@@H](CC(=O)[O-])C[N+](C)(C)C [Propenoylcarnitine]
Fold Change: 0.7992 | log2(FC): -0.3235

CCCCC[C@H](O)/C=C/[C@H]1C(=O)C[C@H](O)[C@@H]1CCCCCCC(=O)O [Prostaglandin D1]
Fold Change: 301.23 | log2(FC): 8.2347

CCCCCCCC(=O)CC(=O)SCCN [S-3-oxodecanoyl cysteamine]
Fold Change: 1.5893 | log2(FC): 0.6684

C=Cc1ccccc1 [Styrene]
Fold Change: 4E-01 and 0.4104 | log2(FC): -1.3 and -1.2849

O=C(O)C[C@H](Nc1ncnc2c1ncn2[C@@H]1O[C@H](CO)[C@@H](O)[C@H]1O)C(=O)O [Succinyladenosine]
Fold Change: 1.239 | log2(FC): 0.3092

NCCS(=O)(=O)O [Taurine]
Fold Change: 0.5717 | log2(FC): -0.8067

CC(C)(C)NCC(O)c1cc(O)cc(O)c1 (stereo not shown) [Terbutaline]
Fold Change: 3E-01 and 0.3372 | log2(FC): -1.6 and -1.5682

C[N+](C)(C)CC(CC(=O)[O-])OC(=O)CCCCCCCC=CC=CCC(=O)O (stereo not shown) [Tetradeca-9,11-dienedioylcarnitine]
Fold Change: 9E+00 and 9.2286 | log2(FC): 3.2 and 3.2061

C[C@]12CC[C@@H](O)C[C@H]1CC[C@@H]1[C@@H]2C(=O)C[C@@]2(C)[C@H]1CC[C@]2(O)C(=O)CO [Tetrahydrocortisone]
Fold Change: 37.791 | log2(FC): 5.24

CC1=NC(C)(C)CS1 [Thiazole, 4,5-dihydro-2,4,4-trimethyl-]
Fold Change: 3E-04 and 0.0003187 | log2(FC): -11.6 and -11.615

O=C(O)[C@@H]1CSCN1 [Thioproline]
Fold Change: 2E-02 and 0.01759 | log2(FC): -5.8 and -5.8288

Cc1cn([C@H]2C[C@H](O)[C@@H](CO)O2)c(=O)[nH]c1=O [Thymidine]
Fold Change: 2.2992 | log2(FC): 1.2011
